In all, about 33,000 sequences were measured (“E-score (-0.5 to 0.5)”: median about -0.015, highest 2% from about 0.3 on). The list shows a part of the results.
Biological target: T1, Abf1 (UniProt P14164)
T1 sequence: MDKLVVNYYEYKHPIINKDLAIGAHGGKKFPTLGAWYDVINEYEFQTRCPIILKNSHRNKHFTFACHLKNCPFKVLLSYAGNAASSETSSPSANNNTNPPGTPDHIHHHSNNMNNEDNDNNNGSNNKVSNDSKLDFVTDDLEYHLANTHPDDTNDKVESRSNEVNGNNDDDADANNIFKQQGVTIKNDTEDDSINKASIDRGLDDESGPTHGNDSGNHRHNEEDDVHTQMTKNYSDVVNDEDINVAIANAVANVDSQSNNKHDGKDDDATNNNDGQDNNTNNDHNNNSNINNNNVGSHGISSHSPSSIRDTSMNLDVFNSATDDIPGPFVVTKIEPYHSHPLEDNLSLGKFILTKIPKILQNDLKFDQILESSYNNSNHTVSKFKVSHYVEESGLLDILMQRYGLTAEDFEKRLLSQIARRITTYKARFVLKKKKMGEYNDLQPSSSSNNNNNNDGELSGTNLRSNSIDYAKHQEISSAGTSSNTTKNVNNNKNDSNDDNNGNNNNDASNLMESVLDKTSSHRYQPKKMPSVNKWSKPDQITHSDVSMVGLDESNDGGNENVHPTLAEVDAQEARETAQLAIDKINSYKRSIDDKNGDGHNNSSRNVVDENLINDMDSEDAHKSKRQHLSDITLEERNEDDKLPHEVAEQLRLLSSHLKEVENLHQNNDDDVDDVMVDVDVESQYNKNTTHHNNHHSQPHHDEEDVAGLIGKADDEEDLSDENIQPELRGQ
Test: PBM E-score (8-mer binding enrichment) (E-score (-0.5 to 0.5)); higher = stronger / more preferred TF binding
Details: protein concentration: 200 nM; construct: GST-full length
Outline: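 Universal all-10-mer Agilent arrays, fresh or stripped once, were converted to double-stranded form by primer extension. GST-tagged yeast transcription factors from PURExpress in vitro transcription/translation, full-length or DNA-binding domain only, were applied at about 100-200 nM and detected with fluorescent anti-GST. After masliner normalisation, the Universal PBM Analysis Suite scored each ungapped eight-base word together with its reverse complement by E-score.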

Sequence | PBM E-score
CGAAGCCA | -0.102
AGGTACAA | 0.0674
ATTCCGAC | -0.174
AATGACTG | -0.127
AACTGAGG | -0.0999
GGTGAACA | -0.0983
AGCAATTA | 0.0411
CCTGGACG | 0.183
AACTAGGT | 0.0275
ACGTTCCA | 0.0987
ACGCAATC | -0.303
TAGAGTGA | 0.248
CATGTAAC | 0.043
ACCTGCTC | -0.0149
CCCCACTC | -0.0593
AGCTGGCG | -0.276
ACCAGATA | 0.0162
AGACTAAT | -0.0707
CACCAATA | 0.0015
GCAATTCA | -0.0514
GAGCCGTA | 0.347
CGCACGTC | -0.0391

Sequence | PBM E-score
AAGTCTAT | 0.0605
CATTTGGG | -0.141
CAAAGGAA | 0.0705
CTGGGGTC | -0.179
CGCTATTA | 0.232
AGGTATCG | 0.106
TATGCGAA | 0.112
CGTTGTAG | 0.102
AACGCTTA | -0.101
GACATCTC | 0.137
AAGAGGTA | -0.0778
ACCGTCAC | 0.158
CTTAGGCA | -0.0659
ATTTACCG | 0.112
GTCCGGTA | 0.00344
CGTATTTC | 0.316
GGCTCTTA | -0.0949
CATATGCG | 0.00167
AACCTCAA | -0.0547
CGAGGACG | -0.0121
GTACCAAA | 0.259
GGGTTGTA | -0.00826

Sequence | PBM E-score
ATGGATCC | 0.0135
GATTCGAC | -0.0487
ATGGGGTA | -0.00916
TCGGAAGA | -0.183
TCCATCGA | -0.0512
TGCGCGAA | -0.00725
TCTACTAA | 0.0564
CAATACCA | 0.114
GGTAGAGA | -0.143
AAATCGCG | 0.157
ACTTTACT | -0.107
ACGGAGCA | 0.138
ACGATCAA | 0.199
GAGATCGA | 0.0422
GCTGACCC | -0.239
CAACTGGC | -0.0854
CCTCCACC | -0.339
GGGCTTAA | -0.19
TAGTAGAA | -0.00786
ATTGTAGA | 0.0207
GCGGCGAA | -0.106
AAGCCTTA | -0.284

Reprinted at random: three records from the list
Sequence | PBM E-score
AGGTATCG | 0.106
ACCAGATA | 0.0162
ATTTACCG | 0.112

(further entries)

Sequence | PBM E-score
AAAGACTG | -0.375
GTCGTGCA | 0.374
AGGGTAGG | -0.0947
AGTGGTTA | 0.0354
CCATACGC | 0.0588
ATACAGTG | 0.011
ACTTGGTA | -0.00051
CTGGGGAC | -0.228
GGGGTACC | -0.181
AGTTATTC | -0.0527
AAGTAACA | -0.0471
AAAAAGGT | 0.0838
GCCTTGAC | -0.135
ACTACGAG | 0.133
CCGCTGAA | -0.153
CCTGCTCA | 0.0193
ACTCATAC | 0.153
CTTAGACA | -0.0898
AATCGCAT | 0.11
TATTTGAA | -0.00117
